## Primary screen of a compound library

By UniProt entry, the sequences of proteins in these tests, tags left out. Residues count along the entry.
UniProt Q8IDJ8, 1-583: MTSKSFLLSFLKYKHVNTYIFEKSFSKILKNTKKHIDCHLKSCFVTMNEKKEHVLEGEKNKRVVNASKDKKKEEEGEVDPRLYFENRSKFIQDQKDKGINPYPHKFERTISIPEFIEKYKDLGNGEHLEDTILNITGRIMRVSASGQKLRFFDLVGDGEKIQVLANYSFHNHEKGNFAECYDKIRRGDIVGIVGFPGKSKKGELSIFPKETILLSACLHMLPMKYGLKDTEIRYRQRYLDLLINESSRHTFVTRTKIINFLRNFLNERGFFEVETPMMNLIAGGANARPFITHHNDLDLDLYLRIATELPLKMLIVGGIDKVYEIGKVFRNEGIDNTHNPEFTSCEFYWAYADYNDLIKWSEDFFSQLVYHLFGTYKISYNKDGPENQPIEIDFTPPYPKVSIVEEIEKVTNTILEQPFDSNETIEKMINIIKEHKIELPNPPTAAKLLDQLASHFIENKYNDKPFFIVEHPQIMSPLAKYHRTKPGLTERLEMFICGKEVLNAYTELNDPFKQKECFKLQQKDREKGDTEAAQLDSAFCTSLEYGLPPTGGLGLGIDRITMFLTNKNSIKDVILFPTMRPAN
UniProt A4I591, 1-473: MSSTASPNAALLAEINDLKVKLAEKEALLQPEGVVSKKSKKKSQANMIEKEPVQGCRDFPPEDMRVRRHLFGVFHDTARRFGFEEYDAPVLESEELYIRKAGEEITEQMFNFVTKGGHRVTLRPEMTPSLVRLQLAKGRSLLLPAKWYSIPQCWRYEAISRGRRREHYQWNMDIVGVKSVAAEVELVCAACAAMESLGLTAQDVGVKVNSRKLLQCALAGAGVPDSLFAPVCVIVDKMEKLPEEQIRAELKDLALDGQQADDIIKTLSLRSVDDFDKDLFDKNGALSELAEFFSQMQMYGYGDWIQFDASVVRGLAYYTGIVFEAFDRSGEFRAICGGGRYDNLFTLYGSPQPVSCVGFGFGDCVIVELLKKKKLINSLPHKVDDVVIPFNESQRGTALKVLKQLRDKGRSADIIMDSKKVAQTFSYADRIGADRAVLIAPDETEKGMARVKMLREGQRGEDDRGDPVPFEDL

From ChEMBL document CHEMBL3988442, “University of Dundee, Small-Polar-MMV Screening Library” (2021).

A: 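Whole-parasite assay of Trypanosoma brucei over 72 hours; the read-out is not stated. Tested at 30 µM. Higher reads as stronger inhibition (inferred: compounds with an IC50 in retests scored well above the rest). Values scatter widely below zero; nearly all retest evidence comes from the higher of the two concentrations used. Of about 64,000 compounds tested this way, about 940 (1.5%) reached 50% or more in at least one test.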
B: 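Enzyme assay of the cytosolic lysyl-tRNA synthetase in 384-well plates, read by luminescence. Target: Lysine-tRNA ligase, Plasmodium falciparum 3D7 (UniProt Q8IDJ8). Compounds at 30 µM. Direction is inferred from only a few compounds that gave an IC50; most scored high, so higher reads as stronger inhibition. Of about 69,000 compounds tested this way, about 49 (0.071%) reached 50% or more in at least one test.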
C: 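Enzyme assay of histidyl-tRNA synthetase; the read-out is not stated. Target: Histidine-tRNA ligase, Leishmania infantum (UniProt A4I591). Tested at 30 µM. Direction is inferred from retests: higher values go with stronger inhibition. The assay is labelled LdHisRS but filed under L. infantum. Of about 69,000 compounds tested this way, about 410 (0.6%) reached 50% or more in at least one test.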
D: 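Assay of Toxoplasma gondii numbers, read through their beta-galactosidase reporter with a colour substrate. Concentration: 10 µM. The record gives no direction; the compounds picked for IC50 retests had high values, so higher reads as fewer parasites. Size under these conditions: about 67,000 compounds, about 260 of them at 50% or above in at least one test.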

Each number is a percent effect as filed. The record does not define 0% and 100%; most values in the screen are far below 50% and negative numbers occur (in some assays of this library far below -100). The compounds are a random part of those screened. A dash means the value is not listed here; it may have been measured.

compound,A,B,C,D
CN(C)C(=O)[C@H]1C[C@H]2[C@H](CCN2Cc2ccc3c(c2)OCO3)O1,-,6.402%,12.73%,-
COc1ccc(CC2CN(C(=O)c3coc(C)n3)CCO2)cc1 (configuration not stated),-,2.296%,9.859%,-
CCc1nsc(N2CCn3c(nnc3C(F)(F)F)C2)n1,-30.05%,-2.017%,24.14%,-6.538%
O=C1OCCC1N1CCN(C(=O)Cc2c[nH]c3ccccc23)CC1 (configuration not stated),-6.327%,4.118%,14.29%,2.355%
Cc1ccc(N2CCN(CC3CC3)C3(CCN(C(C)C)CC3)C2=O)cn1,-,12.72%,15.52%,-
CC(=O)N1C[C@@H](F)[C@@H](OCc2nc3cc(C)c(C)cc3[nH]2)C1,1.894%,3.556%,17.57%,-5.649%
CC(C)CN1C[C@@H]2CN(c3cnccn3)C[C@@H]2C1=O,-,-0.8682%,-10%,-
O=C(O)C(F)(F)F.[H][C@]12CCC[C@@H](CNc3ccccn3)[C@@]1([H])CN(Cc1cc[nH]n1)C2,2.286%,-,-,22.16%
O=C(O)C(F)(F)F.O=C(O)C(F)(F)F.[H][C@@]12CN(Cc3ccoc3)C[C@]1([H])C(=O)N(Cc1ccncc1)C2,-51.66%,-,-,16.48%
CC(=O)N[C@@H]1CN(S(=O)(=O)Cc2ccccc2)C[C@H]1C(C)C,9.633%,4.145%,5.882%,-4.407%
Cc1cc(F)c(S(=O)(=O)Nc2ccn(CCC#N)n2)cc1F,-33.7%,6.095%,10.53%,9.045%
Cc1ccc2[nH]c([C@H]3CCN(CC4CCCCC4)C3)nc2c1,17.92%,1.137%,16.67%,0.7979%
CN(C)[C@@H]1CN(Cc2cccnc2)C[C@H]1c1cn(C)c2ccccc12.Cl,-0.1843%,-,-,-21.76%
Cc1cc(C)n(CC2CCCN2CCCc2nc3ccccc3o2)n1 (configuration not stated),12.29%,-0.8239%,10.71%,-1.561%
Cc1cc(C)n(CCNc2ncnc3c2NC(=O)CN3)n1,-32.35%,5.099%,20%,-11.03%
O=C(C1CCC2(CCN(c3nncs3)CC2)C1)N1CCCC1 (configuration not stated),-16.5%,-1.62%,0%,1.54%
Cc1cc(C(=O)NCc2ccnc(N(C)C)c2)c(C)o1,11.95%,6.828%,8.219%,1.8%
CCOc1ccc(CN(C)C(C)C(=O)Nc2cc(C)no2)cc1 (configuration not stated),7.063%,1.516%,8.333%,-22.46%
CCCN1CCCn2nc(CNS(=O)(=O)c3cnn(CC)c3)cc2C1,-9.936%,8.186%,-41.18%,8.041%
Cc1ccc(N2CCCC(NCCCS(C)(=O)=O)C2)nn1 (configuration not stated),-42.05%,6.099%,16.42%,-3.335%
CCN1CCCn2c(nc(CNC(=O)c3ccsc3)cc2=O)C1,-,3.854%,10.53%,-0.9145%
CCOCC1CN(C(=O)c2ccncn2)Cc2cnn(C)c21 (configuration not stated),-,-0.01169%,11.97%,-
COc1ncccc1CN1C[C@@H]2COC[C@]2(CNC(=O)c2ccno2)C1,-,2.385%,5.128%,-
Cc1noc(C)c1CN(C)Cc1csc(-c2ncccn2)n1,-15.77%,5.266%,24.68%,-3.662%
CCn1cnnc1CNC(=O)c1cc(Cl)ccc1F,-8.167%,0.8274%,9.565%,2.711%
CCOc1ncccc1C(=O)NCCN(CC)C1CC1,1.3%,-0.9194%,-2.703%,4.331%
O=S(=O)(NC[C@H]1C[C@@H]2CCN1C[C@@H]2CN1CCCCC1)c1ccccc1,-,2.189%,16.67%,-
O=C1CCCCCN1Cc1ncnn1Cc1c(F)cccc1Cl,39.46%,3.84%,16.39%,-7.832%
[H][C@]12CCN(C(=O)COC)[C@@]1([H])CC[C@H](COCc1csc(C)n1)O2,-,-,-,-1.022%
Cc1sc(NS(=O)(=O)c2ccccc2)nc1C(=O)NC1CC1,-15.21%,10.84%,10.11%,15.9%
COc1ccc2c(ccn2CC(=O)Nc2n[nH]c(C(C)C)n2)c1,17.43%,6.453%,21.74%,-
Oc1cccc(CN2CCN(C3CCc4ccccc4C3)CC2)c1 (configuration not stated),-19.64%,0.8616%,-43.36%,20.16%
COc1ccc(CN2CCC3(CCCN(C)C3=O)C2)c(Cl)c1OC (configuration not stated),-1.001%,9.761%,19.35%,4.798%
Cc1cc2[nH]c(O)nc2cc1NCc1ccc(F)cc1,-18.76%,2.447%,17.24%,10.64%
CCOC1CCC2(CCN(C(=O)c3c[nH]cn3)CC2)c2ccccc21 (configuration not stated),-11.71%,3.602%,3.846%,4.603%
CN(C)CCCNC(=O)C1CC(=O)N(c2n[nH]c3cccc(F)c23)C1 (configuration not stated),-28.38%,7.08%,18.42%,2.145%
COCCCN(Cc1ccncc1)c1ncc(C#N)cc1Cl,-,-0.4737%,2.083%,-0.2834%
CCN1CC(Oc2ccc(Cl)cc2)=NC(SCC(=O)c2ccccc2)=N1,-32.44%,3.227%,23.53%,2.291%
Cc1cc(-c2nn(C)c(Cl)c2CN2CCOCC2CC(=O)O)no1 (configuration not stated),26.45%,5.623%,19.05%,-2.267%
CCn1cc(NC(=O)NCC(c2cccc(F)c2)N(C)C)cn1 (configuration not stated),-1.695%,2.826%,21.6%,-18.77%
CCN1CCc2c(sc3c2C(=O)NC(/C=C\c2ccccc2)N3)C1 (configuration not stated),-,-1.05%,28.97%,14.67%
CCc1ocnc1C(=O)N1CCCC(n2nc(C)nc2C)C1 (configuration not stated),-,0.01334%,7.339%,-2.726%
Cc1cc(C(=O)Nc2ccc3oc(=O)n(CCN(C)C)c3c2)c(C)o1,33.71%,3.225%,36.61%,0.9302%
CC(NCCCC#N)c1ccc(S(C)(=O)=O)c(F)c1 (configuration not stated),-8.566%,5.879%,0.9009%,-4.205%
[H][C@@]12C[C@@H](OC)C[C@]1([H])CN(C(=O)c1cc3cccc(F)c3[nH]1)C2,-13.63%,-,-,-8.188%
O=C(NCC1CCCO1)c1nc2c(s1)CCCN2CC1CC1 (configuration not stated),-8.009%,6.133%,29.17%,-21.03%
COc1ccc(CN2CCCC(Cn3nc(C)nc3C)C2)cc1F (configuration not stated),2.345%,0.0242%,5.405%,14.57%
CN(Cc1ccsc1)C(=O)c1cc2c([nH]c1=O)CCC2,-,1.524%,14.68%,14.49%
CN(C)CCOCc1cncc2c1CCN(C1CCOC1)C2.O=C(O)C(F)(F)F.O=C(O)C(F)(F)F.O=C(O)C(F)(F)F (configuration not stated),-50.42%,-,-,26.44%
CS(=O)(=O)C1CCN(S(=O)(=O)Cc2cccc(F)c2)CC1,-12.61%,6.129%,8.475%,-3.138%
C1CCCN(c2nc(C3CC3)no2)CC1,-46%,0.7911%,12.07%,-0.641%
COCCN1CCC(NC(=O)NCC2(c3cccc(F)c3)CC2)C1 (configuration not stated),-23.1%,3.184%,11.29%,20.41%
O=C(O)C(F)(F)F.O=C(O)C(F)(F)F.[H][C@@]12OCCN(Cc3ccc(C)o3)[C@@]1([H])CC[C@@H]2OCc1cccnc1,-63.76%,-,-,-23.83%
Cc1ccccc1C(NC(=O)Cn1cc(C2CC2)nn1)C1CC1 (configuration not stated),-22.26%,4.713%,10.26%,3.368%
Cc1cccnc1CCNCC1(O)CCCN(CC2CCCCC2)C1=O (configuration not stated),-31.57%,-1.436%,34.12%,27.07%
CCOCCNC(=O)c1cc(Br)c2c(c1)OCCO2,-12.86%,4.189%,12.9%,-
COc1ccc(Cl)cc1C(=O)N1CCCC(c2cc(C)[nH]n2)C1 (configuration not stated),-15.79%,1.179%,9.649%,17.5%
Cc1nn(C)c(C)c1CC(=O)NCc1ccnc(OC2CCCC2)c1,-24.09%,6.243%,17.09%,-4.694%

Once more, the final 4:

- Cc1cccnc1CCNCC1(O)CCCN(CC2CCCCC2)C1=O (configuration not stated) | A: -31.57%; B: -1.436%; C: 34.12%; D: 27.07%
- CCOCCNC(=O)c1cc(Br)c2c(c1)OCCO2 | A: -12.86%; B: 4.189%; C: 12.9%
- COc1ccc(Cl)cc1C(=O)N1CCCC(c2cc(C)[nH]n2)C1 (configuration not stated) | A: -15.79%; B: 1.179%; C: 9.649%; D: 17.5%
- Cc1nn(C)c(C)c1CC(=O)NCc1ccnc(OC2CCCC2)c1 | A: -24.09%; B: 6.243%; C: 17.09%; D: -4.694%